From patent publication US20250179114A1
The match of structure and compound is tentative.

By UniProt entry, the sequences of proteins in these tests, tags left out.
UniProt P04150, whole entry: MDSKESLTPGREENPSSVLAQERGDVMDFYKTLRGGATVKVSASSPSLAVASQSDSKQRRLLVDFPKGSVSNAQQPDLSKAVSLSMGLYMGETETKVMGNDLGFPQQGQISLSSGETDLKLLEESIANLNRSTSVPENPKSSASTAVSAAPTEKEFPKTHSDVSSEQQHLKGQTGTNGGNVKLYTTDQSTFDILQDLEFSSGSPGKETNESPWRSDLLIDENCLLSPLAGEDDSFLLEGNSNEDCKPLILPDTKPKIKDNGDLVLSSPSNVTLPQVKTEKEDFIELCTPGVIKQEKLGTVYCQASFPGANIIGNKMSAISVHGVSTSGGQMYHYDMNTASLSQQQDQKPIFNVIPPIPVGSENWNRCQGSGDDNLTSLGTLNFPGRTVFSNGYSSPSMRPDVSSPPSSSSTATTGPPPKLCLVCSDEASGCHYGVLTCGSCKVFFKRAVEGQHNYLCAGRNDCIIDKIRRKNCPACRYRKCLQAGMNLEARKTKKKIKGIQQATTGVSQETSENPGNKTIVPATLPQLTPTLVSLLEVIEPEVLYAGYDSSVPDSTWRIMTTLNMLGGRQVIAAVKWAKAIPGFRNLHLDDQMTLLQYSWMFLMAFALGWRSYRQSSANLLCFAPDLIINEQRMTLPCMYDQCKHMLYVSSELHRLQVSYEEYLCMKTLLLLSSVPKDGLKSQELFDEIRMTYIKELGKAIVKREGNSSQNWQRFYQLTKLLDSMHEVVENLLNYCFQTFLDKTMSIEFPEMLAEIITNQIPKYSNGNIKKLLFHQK

Tests used:
glucocorticoid receptor = glucocorticoid receptor (Homo sapiens, UniProt P04150); assay: Activity assay of glucocorticoid receptor reporter gene GRE; format: cell-based; conditions: read-out: EC50 (nM), glucocorticoid receptor reporter gene GRE activity; HEK293 cells transfected with pGL5 and pBIND-GR; 24 h; Dual-Glo luciferase
GR = GR (Homo sapiens, UniProt P04150); assay: GR luciferase reporter gene elution experiment; conditions: supernatant removed and washed, then 24 h

Compound: C[C@]12C=CC(=O)C=C1CC[C@H]1[C@@H]3C[C@H]4O[C@@H](c5ccc(Cc6cccc(N)c6)s5)O[C@@]4(C(=O)CO)[C@@]3(C)C[C@H](O)[C@@]12F
- EC50 (glucocorticoid receptor): 0.3 nM
- Elution time (Act %) 15 min (GR; incubation 15 min): 32.9%
- Elution time (Act %) 30 min (GR; incubation 30 min): 29.2%
- Elution time (Act %) 1 h (GR; incubation 1 h): 28.7%
- Elution time (Act %) 2 h (GR; incubation 2 h): 23.8%
- Elution time (Act %) 4 h (GR; incubation 4 h): 32.2%
